Assay results: patent publication US20240075152A1
Results are given in words; binding and its absence hold for the method and conditions named. Some results given as binding are weak or reduced against the parent protein; the word gives no strength. Where a sequence is shown, tags or fusion partners need not be part of it.

Experiments:
[1] = target: GCN4-p2L variant (trimeric variant of GCN4 peptide with N-terminal NTA and C-terminal His2), assembled into hexagonal 3D crystals with Zn2+; assay: inclusion during crystal growth, confocal fluorescence
[2] = target: GCN4-p2L variant (trimeric variant of GCN4 peptide with N-terminal NTA and C-terminal His2), assembled into hexagonal 3D crystals with Zn2+; assay: preformed crystals treated with NiCl2, confocal fluorescence
[3] = target: GCN4-p2L variant (trimeric variant of GCN4 peptide with N-terminal NTA and C-terminal His2), assembled into hexagonal 3D crystals with Zn2+; assay: both strategies combined, confocal fluorescence

Measured: binding

HHHHHH (fluorescein label (position not given)) [fluorescein-labeled His6 (Fl-His6)]
binds: all assays above
